# Laboratory results published in article PMC9570369.
# Amino acid sequences for entries named in this document (tags omitted). Residues count along the entry.
# UniProt P0C6Y1, residues 674-2265: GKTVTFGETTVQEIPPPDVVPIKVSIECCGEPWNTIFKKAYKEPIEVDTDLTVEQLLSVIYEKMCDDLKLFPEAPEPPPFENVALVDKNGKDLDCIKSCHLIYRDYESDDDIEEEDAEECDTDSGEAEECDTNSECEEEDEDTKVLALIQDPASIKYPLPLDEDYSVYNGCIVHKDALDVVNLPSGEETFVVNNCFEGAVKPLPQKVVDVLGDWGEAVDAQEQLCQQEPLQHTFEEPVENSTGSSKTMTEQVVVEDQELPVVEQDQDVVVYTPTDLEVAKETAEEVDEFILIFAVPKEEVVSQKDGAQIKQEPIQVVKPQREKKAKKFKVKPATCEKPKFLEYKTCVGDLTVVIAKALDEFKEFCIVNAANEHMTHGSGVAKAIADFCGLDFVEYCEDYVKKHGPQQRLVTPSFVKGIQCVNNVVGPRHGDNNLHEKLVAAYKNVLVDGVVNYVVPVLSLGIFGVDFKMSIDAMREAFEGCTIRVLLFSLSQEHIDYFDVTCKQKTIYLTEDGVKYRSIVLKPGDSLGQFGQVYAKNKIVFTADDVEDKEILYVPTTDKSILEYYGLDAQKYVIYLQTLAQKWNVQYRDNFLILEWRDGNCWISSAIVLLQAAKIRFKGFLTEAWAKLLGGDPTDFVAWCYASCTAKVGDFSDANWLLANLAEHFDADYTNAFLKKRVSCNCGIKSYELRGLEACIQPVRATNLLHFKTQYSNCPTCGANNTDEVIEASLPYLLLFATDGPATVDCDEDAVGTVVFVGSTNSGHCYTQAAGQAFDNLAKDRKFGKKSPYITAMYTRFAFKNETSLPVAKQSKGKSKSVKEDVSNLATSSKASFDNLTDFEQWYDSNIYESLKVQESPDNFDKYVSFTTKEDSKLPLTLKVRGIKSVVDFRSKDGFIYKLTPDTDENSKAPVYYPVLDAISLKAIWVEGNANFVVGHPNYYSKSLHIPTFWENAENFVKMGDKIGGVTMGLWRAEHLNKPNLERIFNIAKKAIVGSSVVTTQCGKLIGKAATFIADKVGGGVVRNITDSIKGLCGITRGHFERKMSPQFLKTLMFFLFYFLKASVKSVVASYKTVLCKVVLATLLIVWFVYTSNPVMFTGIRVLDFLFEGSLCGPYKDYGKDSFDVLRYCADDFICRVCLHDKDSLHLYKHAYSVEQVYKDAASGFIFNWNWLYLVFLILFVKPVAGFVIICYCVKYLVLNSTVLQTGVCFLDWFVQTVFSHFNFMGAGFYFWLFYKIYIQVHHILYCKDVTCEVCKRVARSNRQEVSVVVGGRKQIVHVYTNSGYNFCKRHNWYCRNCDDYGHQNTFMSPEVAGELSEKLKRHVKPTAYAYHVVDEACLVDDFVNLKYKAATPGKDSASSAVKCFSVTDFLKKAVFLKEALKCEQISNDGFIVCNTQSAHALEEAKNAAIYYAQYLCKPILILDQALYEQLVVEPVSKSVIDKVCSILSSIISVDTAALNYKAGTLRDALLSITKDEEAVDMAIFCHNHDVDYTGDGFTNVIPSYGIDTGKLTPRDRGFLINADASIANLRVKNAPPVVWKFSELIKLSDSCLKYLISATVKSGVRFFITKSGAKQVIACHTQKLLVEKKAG
# These are yes or no findings as the source states them, for the method shown. In cells and extracts the contact can be indirect. Some entries that bind do so weakly or less than the wild type.
# B1: endogenous melanoma differentiation-associated gene 5 (MDA5) (protein, UniProt Q9BYX4 1-1025)
# chain: MSNGYSTDENFRYLISCFRARVKMYIQVEPVLDYLTFLPAEVKEQIQRTVATSGNMQAVELLLSTLEKGVWHLGWTREFVEALRRTGSPLAARYMNPELTDLPSPSFENAHDEYLQLLNLLQPTLVDKLLVRDVLDKCMEEELLTIEDRNRIAAAENNGNESGVRELLKRIVQKENWFSAFLNVLRQTGNNELVQELTGSDCSESNAEIENLSQVDGPQVEEQLLSTTVQPNLEKEVWGMENNSSESSFADSSVVSESDTSLAEGSVSCLDESLGHNSNMGSDSGTMGSDSDEENVAARASPEPELQLRPYQMEVAQPALEGKNIIICLPTGSGKTRVAVYIAKDHLDKKKKASEPGKVIVLVNKVLLVEQLFRKEFQPFLKKWYRVIGLSGDTQLKISFPEVVKSCDIIISTAQILENSLLNLENGEDAGVQLSDFSLIIIDECHHTNKEAVYNNIMRHYLMQKLKNNRLKKENKPVIPLPQILGLTASPGVGGATKQAKAEEHILKLCANLDAFTIKTVKENLDQLKNQIQEPCKKFAIADATREDPFKEKLLEIMTRIQTYCQMSPMSDFGTQPYEQWAIQMEKKAAKEGNRKERVCAEHLRKYNEALQINDTIRMIDAYTHLETFYNEEKDKKFAVIEDDSDEGGDDEYCDGDEDEDDLKKPLKLDETDRFLMTLFFENNKMLKRLAENPEYENEKLTKLRNTIMEQYTRTEESARGIIFTKTRQSAYALSQWITENEKFAEVGVKAHHLIGAGHSSEFKPMTQNEQKEVISKFRTGKINLLIATTVAEEGLDIKECNIVIRYGLVTNEIAMVQARGRARADESTYVLVAHSGSGVIEHETVNDFREKMMYKAIHCVQNMKPEEYAHKILELQMQSIMEKKMKTKRNIAKHYKNNPSLITFLCKNCSVLACSGEDIHVIEKMHHVNMTPEFKELYIVRENKALQKKCADYQINGEIICKCGQAWGTMMVHKGLDLPCLKIRNFVVVFKNNSTKKQYKKWVELPITFPNLDYSECCLFSDED
# What was measured:
# [1] = molecular target: Flag-tagged full-length IBV nsp3 (avian coronavirus infectious bronchitis virus (IBV)) (UniProt P0C6Y1); test: co-IP
# [2] = molecular target: HA-tagged full-length SARS-CoV-2 nsp3 (SARS-CoV-2) (UniProt P0DTD1); test: co-IP
binder,measurement,setting,value
B1,binding,[1],binds
same,binding,[2],binds
